Test results taken from patent US20100297135A1.

What was measured:
[1] = molecular target: wild type Macaque GM-CSF (Macaque); test: Western blot
[2] = molecular target: wild type Macaque GM-CSF (Macaque); test: semi-quantitative ELISA
[3] = molecular target: wild type Macaque GM-CSF (Macaque); test: Western blot; polypeptides separated by PAGE, nitrocellulose probed with 4K21 (2.68 ug/ml), goat anti-mouse IgG-HRP, chemiluminescence

Measured: binding

B1: murine anti-human GM-CSF monoclonal antibody 4K21-O11-E14 (antibody, V domains shown)
VH: EVQLVESGGGLVKSGGSLKLSCAASGFAFSAYDMSWVRQTPEKRLELVAYISSGGSSFYYPDTVKGRFTISRDNAKNTLYLQMSSLKSEDTAMYYCTRHLGFDYWGQGTTLTVSS
VL: DVVMTQTPLSLPVSLGDQASISCRSSQSLVNSNGNTYLHWFLQKPGQSPKLLIYKVSNRFSGVPDRFSGSGSGTDFTLKISRVEAEDLGVYFCSQSTHVPPTFGGGTKLEIK
binds: all assays above

These are yes or no findings as the source states them, for the method shown. Binding can be weak; no strength is given.
